Protein sequences, listed by entry. Tags and fused reporters are not part of them.
UniProt O95817: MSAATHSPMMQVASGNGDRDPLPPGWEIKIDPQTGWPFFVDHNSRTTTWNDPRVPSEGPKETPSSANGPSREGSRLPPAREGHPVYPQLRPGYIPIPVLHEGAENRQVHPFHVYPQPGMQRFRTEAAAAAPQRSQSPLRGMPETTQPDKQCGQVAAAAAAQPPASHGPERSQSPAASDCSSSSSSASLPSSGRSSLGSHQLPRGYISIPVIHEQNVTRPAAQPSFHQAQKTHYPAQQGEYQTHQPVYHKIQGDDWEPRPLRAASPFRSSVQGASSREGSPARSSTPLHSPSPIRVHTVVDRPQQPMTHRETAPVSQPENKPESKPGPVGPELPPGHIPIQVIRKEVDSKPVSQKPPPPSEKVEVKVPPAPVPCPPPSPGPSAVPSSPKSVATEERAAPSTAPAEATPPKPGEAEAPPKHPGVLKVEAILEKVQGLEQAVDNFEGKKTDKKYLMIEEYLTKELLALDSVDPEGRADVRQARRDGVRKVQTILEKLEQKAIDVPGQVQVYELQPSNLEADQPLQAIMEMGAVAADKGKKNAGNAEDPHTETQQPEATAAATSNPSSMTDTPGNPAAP

In PMC7694386:

biological target: BAG3 (BCL-2-associated athanogene 3) (human (endogenous in HEK293T)) (UniProt O95817); test: affinity purification with mass spectrometry; endogenous BAG3 immunoprecipitated with anti-BAG3 antibody and Protein A/G magnetic beads from HEK293T lysate; cells treated with DMSO (basal) or 10 µM MG132 for 6 h; IgG IP (MG132_IgG) as control; label-free quantification, three biological replicates

Binder | binding
kinesin KIF4A (protein, UniProt O95239 1-1232) MKEEVKGIPVRVALRCRPLVPKEISEGCQMCLSFVPGEPQVVVGTDKSFTYDFVFDPSTEQEEVFNTAVAPLIKGVFKGYNATVLAYGQTGSGKTYSMGGAYTAEQENEPTVGVIPRVIQLLFKEIDKKSDFEFTLKVSYLEIYNEEILDLLCPSREKAQINIREDPKEGIKIVGLTEKTVLVALDTVSCLEQGNNSRTVASTAMNSQSSRSHAIFTISLEQRKKSDKNSSFRSKLHLVDLAGSERQKKTKAEGDRLKEGININRGLLCLGNVISALGDDKKGGFVPYRDSKLTRLLQDSLGGNSHTLMIACVSPADSNLEETLNTLRYADRARKIKNKPIVNIDPQTAELNHLKQQVQQLQVLLLQAHGGTLPGSITVEPSENLQSLMEKNQSLVEENEKLSRGLSEAAGQTAQMLERIILTEQANEKMNAKLEELRQHAACKLDLQKLVETLEDQELKENVEIICNLQQLITQLSDETVACMAAAIDTAVEQEAQVETSPETSRSSDAFTTQHALRQAQMSKELVELNKALALKEALARKMTQNDSQLQPIQYQYQDNIKELELEVINLQKEKEELVLELQTAKKDANQAKLSERRRKRLQELEGQIADLKKKLNEQSKLLKLKESTERTVSKLNQEIRMMKNQRVQLMRQMKEDAEKFRQWKQKKDKEVIQLKERDRKRQYELLKLERNFQKQSNVLRRKTEEAAAANKRLKDALQKQREVADKRKETQSRGMEGTAARVKNWLGNEIEVMVSTEEAKRHLNDLLEDRKILAQDVAQLKEKKESGENPPPKLRRRTFSLTEVRGQVSESEDSITKQIESLETEMEFRSAQIADLQQKLLDAESEDRPKQRWENIATILEAKCALKYLIGELVSSKIQVSKLESSLKQSKTSCADMQKMLFEERNHFAEIETELQAELVRMEQQHQEKVLYLLSQLQQSQMAEKQLEESVSEKEQQLLSTLKCQDEELEKMREVCEQNQQLLRENEIIKQKLTLLQVASRQKHLPKDTLLSPDSSFEYVPPKPKPSRVKEKFLEQSMDIEDLKYCSEHSVNEHEDGDGDDDEGDDEEWKPTKLVKVSRKNIQGCSCKGWCGNKQCGCRKQKSDCGVDCCCDPTKCRNRQQGKDSLGTVERTQDSEGSFKLEDPTEVTPGLSFFNPVCATPNSKILKEMCDVEQVLSKKTPPAPSPFDLPELKHVATEYQENKAPGKKKKRALASNTSFFSGCSPIEEEAH | binds
NOC4L (protein, UniProt Q9BVI4 1-516) MEREPGAAGVRRALGRRLEAVLASRSEANAVFDILAVLQSEDQEEIQEAVRTCSRLFGALLERGELFVGQLPSEEMVMTGSQGATRKYKVWMRHRYHSCCNRLGELLGHPSFQVKELALSALLKFVQLEGAHPLEKSKWEGNYLFPRELFKLVVGGLLSPEEDQSLLLSQFREYLDYDDTRYHTMQAAVDAVARVTGQHPEVPPAFWNNAFTLLSAVSLPRREPTVSSFYVKRAELWDTWKVAHLKEHRRVFQAMWLSFLKHKLPLSLYKKVLLIVHDAILPQLAQPTLMIDFLTRACDLGGALSLLALNGLFILIHKHNLEYPDFYRKLYGLLDPSVFHVKYRARFFHLADLFLSSSHLPAYLVAAFAKRLARLALTAPPEALLMVLPFICNLLRRHPACRVLVHRPHGPELDADPYDPGEEDPAQSRALESSLWELQALQRHYHPEVSKAASVINQALSMPEVSIAPLLELTAYEIFERDLKKKGPEPVPLEFIPAQGLLGRPGELCAQHFTLS | binds
NHP2 (protein, UniProt Q9NX24 1-153) MTKIKADPDGPEAQAEACSGERTYQELLVNQNPIAQPLASRRLTRKLYKCIKKAVKQKQIRRGVKEVQKFVNKGEKGIMVLAGDTLPIEVYCHLPVMCEDRNLPYVYIPSKTDLGAAAGSKRPTCVIMVKPHEEYQEAYDECLEEVQSLPLPL | binds
DDX51 (protein, UniProt Q8N8A6 1-666) MALFYVARYPGPDAAAAAGPEGAEAGAHGRARALLERLQSRARERQQQREPAQTEAAASTEPATRRRRRPRRRRRVNDAEPGSPEAPQGKRRKADGEDAGAESNEEAPGEPSAGSSEEAPGEPSAGSSEEAPGERSTSASAEAAPDGPALEEAAGPLVPGLVLGGFGKRKAPKVQPFLPRWLAEPNCVRRNVTEDLVPIEDIPDVHPDLQKQLRAHGISSYFPVQAAVIPALLESAACGFLVGRGGYRPSDLCVSAPTGSGKTLAFVIPVVQALLSRVVCHIRALVVLPTKELAQQVSKVFNIYTDATPLRVSLVTGQKSLAKEQESLVQKTADGYRCLADIVVATPGRLVDHIDQTPGFSLQQLRFLIIDEADRMIDSMHQSWLPRVVAAAFQSEDPADPCALLQRRQAQAVTAASTCCPQMPLQKLLFSATLTQNPEKLQQLGLHQPRLFSTGLAHRGLEDTDGDGDSGKYAFPVGLTHHYVPCSLSSKPLVVLHLVLEMGFSRVLCFTNSRENSHRLFLLVQAFGGVDVAEFSSRYGPGQRRMILKQFEQGKIQLLISTDATARGIDVQGVELVVNYDAPQYLRTYVHRVGRTARAGKTGQAFTLLLKVQERRFLRMLTEAGAPELQRHELSSKLLQPLVPRYEEALSQLEESVKEERKQRAA | binds
Plastin-3 (protein, UniProt P13797 1-630) MDEMATTQISKDELDELKEAFAKVDLNSNGFICDYELHELFKEANMPLPGYKVREIIQKLMLDGDRNKDGKISFDEFVYIFQEVKSSDIAKTFRKAINRKEGICALGGTSELSSEGTQHSYSEEEKYAFVNWINKALENDPDCRHVIPMNPNTDDLFKAVGDGIVLCKMINLSVPDTIDERAINKKKLTPFIIQENLNLALNSASAIGCHVVNIGAEDLRAGKPHLVLGLLWQIIKIGLFADIELSRNEALAALLRDGETLEELMKLSPEELLLRWANFHLENSGWQKINNFSADIKDSKAYFHLLNQIAPKGQKEGEPRIDINMSGFNETDDLKRAESMLQQADKLGCRQFVTPADVVSGNPKLNLAFVANLFNKYPALTKPENQDIDWTLLEGETREERTFRNWMNSLGVNPHVNHLYADLQDALVILQLYERIKVPVDWSKVNKPPYPKLGANMKKLENCNYAVELGKHPAKFSLVGIGGQDLNDGNQTLTLALVWQLMRRYTLNVLEDLGDGQKANDDIIVNWVNRTLSEAGKSTSIQSFKDKTISSSLAVVDLIDAIQPGCINYDLVKSGNLTEDDKHNNAKYAVSMARRIGARVYALPEDLVEVKPKMVMTVFACLMGRGMKRV | binds
DCP1B (protein, UniProt Q8IZD4 1-617) MAAVAAGGLVGKGRDISLAALQRHDPYINRIVDVASQVALYTFGHRANEWEKTDVEGTLFVYTRSASPKHGFTIMNRLSMENRTEPITKDLDFQLQDPFLLYRNARLSIYGIWFYDKEECQRIAELMKNLTQYEQLKAHQGTGAGISPVILNSGEGKEVDILRMLIKAKDEYTKCKTCSEPKKITSSSAIYDNPNLIKPIPVKPSENQQQRIPQPNQTLDPEPQHLSLTALFGKQDKATCQETVEPPQTLHQQQQQQQQQQEKLPIRQGVVRSLSYEEPRRHSPPIEKQLCPAIQKLMVRSADLHPLSELPENRPCENGSTHSAGEFFTGPVQPGSPHNIGTSRGVQNASRTQNLFEKLQSTPGAANKCDPSTPAPASSAALNRSRAPTSVTPVAPGKGLAQPPQAYFNGSLPPQTVGHQAHGREQSTLPRQTLPISGSQTGSSGVISPQELLKKLQIVQQEQQLHASNRPALAAKFPVLAQSSGTGKPLESWINKTPNTEQQTPLFQVISPQRIPATAAPSLLMSPMVFAQPTSVPPKERESGLLPVGGQEPPAAATSLLLPIQSPEPSVITSSPLTKLQLQEALLYLIQNDDNFLNIIYEAYLFSMTQAAMKKTM | binds

Continued, values first:

binding | Binder
binds | Wolframin (protein, UniProt O76024 1-890) MDSNTAPLGPSCPQPPPAPQPQARSRLNATASLEQERSERPRAPGPQAGPGPGVRDAAAPAEPQAQHTRSRERADGTGPTKGDMEIPFEEVLERAKAGDPKAQTEVGKHYLQLAGDTDEELNSCTAVDWLVLAAKQGRREAVKLLRRCLADRRGITSENEREVRQLSSETDLERAVRKAALVMYWKLNPKKKKQVAVAELLENVGQVNEHDGGAQPGPVPKSLQKQRRMLERLVSSESKNYIALDDFVEITKKYAKGVIPSSLFLQDDEDDDELAGKSPEDLPLRLKVVKYPLHAIMEIKEYLIDMASRAGMHWLSTIIPTHHINALIFFFIVSNLTIDFFAFFIPLVIFYLSFISMVICTLKVFQDSKAWENFRTLTDLLLRFEPNLDVEQAEVNFGWNHLEPYAHFLLSVFFVIFSFPIASKDCIPCSELAVITGFFTVTSYLSLSTHAEPYTRRALATEVTAGLLSLLPSMPLNWPYLKVLGQTFITVPVGHLVVLNVSVPCLLYVYLLYLFFRMAQLRNFKGTYCYLVPYLVCFMWCELSVVILLESTGLGLLRASIGYFLFLFALPILVAGLALVGVLQFARWFTSLELTKIAVTVAVCSVPLLLRWWTKASFSVVGMVKSLTRSSMVKLILVWLTAIVLFCWFYVYRSEGMKVYNSTLTWQQYGALCGPRAWKETNMARTQILCSHLEGHRVTWTGRFKYVRVTDIDNSAESAINMLPFFIGDWMRCLYGEAYPACSPGNTSTAEEELCRLKLLAKHPCHIKKFDRYKFEITVGMPFSSGADGSRSREEDDVTKDIVLRASSEFKSVLLSLRQGSLIEFSTILEGRLGSKWPVFELKAISCLNCMAQLSPTRRHVKIEHDWRSTVHGAVKFAFDFFFFPFLSAA
binds | DDX52 (protein, UniProt Q9Y2R4 1-599) MDVHDLFRRLGAGAKFDTRRFSADAARFQIGKRKYDFDSSEVLQGLDFFGNKKSVPGVCGASQTHQKPQNGEKKEESLTERKREQSKKKRKTMTSEIASQEEGATIQWMSSVEAKIEDKKVQRESKLTSGKLENLRKEKINFLRNKHKIHVQGTDLPDPIATFQQLDQEYKINSRLLQNILDAGFQMPTPIQMQAIPVMLHGRELLASAPTGSGKTLAFSIPILMQLKQPANKGFRALIISPTRELASQIHRELIKISEGTGFRIHMIHKAAVAAKKFGPKSSKKFDILVTTPNRLIYLLKQDPPGIDLASVEWLVVDESDKLFEDGKTGFRDQLASIFLACTSHKVRRAMFSATFAYDVEQWCKLNLDNVISVSIGARNSAVETVEQELLFVGSETGKLLAVRELVKKGFNPPVLVFVQSIERAKELFHELIYEGINVDVIHAERTQQQRDNTVHSFRAGKIWVLICTALLARGIDFKGVNLVINYDFPTSSVEYIHRIGRTGRAGNKGKAITFFTEDDKPLLRSVANVIQQAGCPVPEYIKGFQKLLSKQKKKMIKKPLERESISTTPKCFLEKAKDKQKKVTGQNSKKKVALEDKS
binds | DHX33 (protein, UniProt Q9H6R0 1-707) MPEEAGFPPAKRFRPGSGPPSRAGSFPPGRQVVMLLTAGSGGRGGGGGRRQQPPLAQPSASPYPEAVELQRRSLPIFQARGQLLAQLRNLDNAVLIGETGSGKTTQIPQYLYEGGISRQGIIAVTQPRRVAAISLATRVSDEKRTELGKLVGYTVRFDDVTSEDTRIKFLTDGMLLREAISDSLLRKYSCVILDEAHERTIHTDVLFGVVKAAQKRRKELGKLPLKVIVMSATMDVDLFSQYFNGAPVLYLEGRQHPIQVFYTKQPQNDYLHAALVSVFQIHQEAPSSQDILVFLTGQEEIEAMSKTCRDIAKHLPDGCPAMLVLPLYASLPYAQQLRVFQGAPKGYRKVIISTNIAETSITITGIKYVVDTGMVKAKKYNPDSGLEVLAVQRVSKTQAWQRTGRAGREDSGICYRLYTEDEFEKFDKMTVPEIQRCNLASVMLQLLAMKVPNVLTFDFMSKPSPDHIQAAIAQLDLLGALEHKDDQLTLTPMGRKMAAFPLEPKFAKTILMSPKFHCTEEILTIVSLLSVDSVLHNPPSRREEVQGVRKKFISSEGDHMTLLNIYRTFKNLGGNKDWCKENFVNSKNMTLVAEVRAQLRDICLKMSMPIASSRGDVESVRRCLAHSLFMSTAELQPDGTYATTDTHQPVAIHPSSVLFHCKPACVVYTELLYTNKCYMRDLCVIDAQWLYEAAPEYFRRKLRTARN

No constants are given. Whether binding was seen depends on the method and setting. Binding seen in cells or lysates may run through a third protein. Here binding means that the protein was enriched with, or labelled near, the bait; the list need not be complete.
